No constants are given. Whether binding was seen depends on the method and setting. For part of these data: Binding calls can cover weak binding; strength is not graded here.
Key:
[1] = target: T1, Grass (active, cleaved by cSP48) (Drosophila melanogaster) (UniProt Q9VB68); assay: LC-MS/MS of the SDS-stable Nec-protease bands; reactions (fig. S16) separated by 10% SDS-PAGE, in-gel chymotrypsin digestion of the Nec-protease bands, LC-MS/MS; both purified
T1 sequence: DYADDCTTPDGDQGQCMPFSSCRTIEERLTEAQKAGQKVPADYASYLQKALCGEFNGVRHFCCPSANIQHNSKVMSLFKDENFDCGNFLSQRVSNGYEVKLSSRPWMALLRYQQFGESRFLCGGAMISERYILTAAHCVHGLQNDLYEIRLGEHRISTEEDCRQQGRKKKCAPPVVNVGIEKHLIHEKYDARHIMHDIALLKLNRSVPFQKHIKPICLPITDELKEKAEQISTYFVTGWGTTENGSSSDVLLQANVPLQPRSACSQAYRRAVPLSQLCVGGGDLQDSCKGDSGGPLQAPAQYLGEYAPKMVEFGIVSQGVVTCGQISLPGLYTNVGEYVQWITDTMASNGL

[2] = target: T2, Psh (Drosophila melanogaster) (UniProt Q9VWU1); assay: SDS-stable serpin-protease complex (SDS-PAGE and immunoblot); Nec with cSP48 (blot with FLAG antibody, fig. S15A) or Psh (blot with anti-Myc antibody, fig. S15B); both purified
T2 sequence: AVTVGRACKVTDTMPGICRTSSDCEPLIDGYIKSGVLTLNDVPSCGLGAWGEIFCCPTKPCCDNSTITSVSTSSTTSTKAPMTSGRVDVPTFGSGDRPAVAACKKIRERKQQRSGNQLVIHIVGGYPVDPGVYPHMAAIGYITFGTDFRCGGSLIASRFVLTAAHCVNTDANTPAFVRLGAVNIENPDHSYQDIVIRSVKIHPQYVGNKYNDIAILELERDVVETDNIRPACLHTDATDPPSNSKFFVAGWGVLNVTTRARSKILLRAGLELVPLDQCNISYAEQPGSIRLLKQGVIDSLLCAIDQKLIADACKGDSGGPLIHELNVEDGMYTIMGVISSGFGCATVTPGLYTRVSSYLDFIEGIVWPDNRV

[3] = target: T1, Grass (active, cleaved by cSP48) (Drosophila melanogaster); assay: SDS-stable serpin-protease complex (SDS-PAGE and immunoblot); active Grass made in a mixture of proModSP* (500 ng), procSP48 (100 ng), proGrass (800 ng) in buffer A, 1 hour at 37°C; then Nec (800 ng) added, 1 hour at 37°C; 10% SDS-PAGE under reducing conditions; blots with HA or Nec antibodies; both purified

In the case of Necrotic (Drosophila melanogaster), the binding [1] is reported as “binds”, the binding [2] is reported as “no binding” and the binding [3] is reported as “binds”.
